Patent publication US8278293B2, “Diazo bicyclic Smac mimetics and the uses thereof” (The Regents of the University of Michigan, priority 2007, dated 2012)
At least one structure is not confirmed: it was looked up by name or label, or the drawing left a doubt.

Chains of the proteins cited; added tags and fusions are not shown. Residues count along the entry.
UniProt Q13490, 253-363: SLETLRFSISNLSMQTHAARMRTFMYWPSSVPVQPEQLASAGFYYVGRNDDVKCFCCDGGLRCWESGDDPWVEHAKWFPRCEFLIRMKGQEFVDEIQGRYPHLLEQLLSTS
UniProt Q13490, whole entry: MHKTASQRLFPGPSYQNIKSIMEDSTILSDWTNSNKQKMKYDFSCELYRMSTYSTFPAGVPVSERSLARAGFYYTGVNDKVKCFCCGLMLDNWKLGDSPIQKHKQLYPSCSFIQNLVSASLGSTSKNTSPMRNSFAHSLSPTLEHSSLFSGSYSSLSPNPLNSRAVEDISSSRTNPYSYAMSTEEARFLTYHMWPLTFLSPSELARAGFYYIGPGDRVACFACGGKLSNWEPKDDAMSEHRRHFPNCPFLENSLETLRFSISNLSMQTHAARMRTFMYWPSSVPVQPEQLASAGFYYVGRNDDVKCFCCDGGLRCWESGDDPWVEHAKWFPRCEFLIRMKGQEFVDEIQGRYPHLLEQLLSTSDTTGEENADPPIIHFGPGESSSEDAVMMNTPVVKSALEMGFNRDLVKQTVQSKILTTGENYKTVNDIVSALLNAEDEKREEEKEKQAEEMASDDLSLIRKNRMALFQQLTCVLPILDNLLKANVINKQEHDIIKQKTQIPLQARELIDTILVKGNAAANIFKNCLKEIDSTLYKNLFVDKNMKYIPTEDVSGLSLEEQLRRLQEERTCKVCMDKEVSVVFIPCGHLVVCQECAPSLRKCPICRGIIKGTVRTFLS

How the values were obtained:
[1] = system: SK-OV-3 ovarian cancer cells; test: Induction of apoptosis, FITC Annexin V/propidium iodide flow cytometry, SK-OV-3; assay type: cell-based; conditions: 0.1, 0.3, 1 and 3 μM, FIG. 23
[2] = system: Panc-1 pancreatic cancer cells; test: Induction of apoptosis, FITC Annexin V/propidium iodide flow cytometry, Panc-1; assay type: cell-based; conditions: 0.3, 1 and 3 μM, FIG. 24
[3] = system: MDA-MB-231 breast cancer cells; test: Induction of apoptosis, FITC Annexin V/propidium iodide flow cytometry, MDA-MB-231; assay type: cell-based; conditions: 3 μM, FIG. 22
cIAP1 BIR3 domain = target: T1, cIAP1 BIR3 domain (Homo sapiens, UniProt Q13490); test: FP competitive binding assay to cIAP1 BIR3
T1 construct: cIAP1 BIR3 domain (residues 253-363); His-tag

cIAP-1 protein [4] = target: T2, cIAP-1 protein (Homo sapiens, UniProt Q13490); test: Western blotting of cIAP-1 protein in SK-OV-3 cells; assay type: cell-based; conditions: FIG. 21
T2 construct: endogenous in cells; host or cells: MDA-MB-231

cIAP-1 protein [5] = target: T2, cIAP-1 protein; test: Western blotting of cIAP-1 protein in MDA-MB-231 cells; assay type: cell-based; conditions: FIG. 20

SMILES: CN[C@@H](C)C(=O)N[C@H]1CN(C(=O)CC(C)C)CC[C@H]2CC[C@@H](C(=O)NC(c3ccccc3)c3ccccc3)N2C1=O [SM-406]
- induction of apoptosis, SK-OV-3 [1]: induced apoptosis
- induction of apoptosis, Panc-1 [2]: induced apoptosis
- induction of apoptosis, MDA-MB-231 [3]: induced apoptosis
- binding to cIAP1 BIR3 domain, competitive binding curve (FIG. 28B) (cIAP1 BIR3 domain): binds
- cIAP-1 protein levels in SK-OV-3 cells (cIAP-1 protein [4]): reduced
- cIAP-1 protein levels in MDA-MB-231 cells (cIAP-1 protein [5]): reduced cIAP-1 protein levels
